Data as given in PubChem BioAssay AID652259 (Drosophila RNAi Screening Center, 2013).

- Purpose: 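Knock-downs that push a Wingless-driven reporter up or down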 (primary screen)
- Cell system: Drosophila clone 8 imaginal disc epithelial cells
- Reagents: long dsRNA against Drosophila genes
- Challenge: pathway stimulated by co-transfected Wingless expression plasmid
- Read-out: 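Dual luciferase reads per well after Wingless plasmid stimulation: reporter firefly light and Renilla control light; activity is firefly divided by Renilla, a ratio not deposited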
- Direction: firefly reporter light: higher = more Wg reporter light, before normalisation; Renilla control light: higher = more transfected or surviving cells
- Rule for the call: 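a knock-down is a candidate when at least two out of four statistical tests show it departing from its plate mean; one test alone signals a weak candidate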
- Calls: active = candidate regulator (raises or lowers reporter); inactive = not a candidate
In all, the deposit lists about 22,000 reagents; below is a random part of those that have a named target and a result. Over the whole deposit, 233 (1.1%) are marked active. 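Light values are raw, unnormalised plate reads; the ratio scores behind the reporter calls were not deposited.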 Entries without a mark were called inactive. The numbers tell different reagents against one gene apart. Not stated in the record: the amount of reagent, the time to read-out, the dose of the treatment.

gene	reagent no.	firefly reporter light, replicate 1	firefly reporter light, replicate 2	Renilla control light, replicate 1	Renilla control light, replicate 2
elfless	1	2069	4268	860	3421
mfr	1	1280	5216	1015	2845
Prosap	1	6785		2035	
Prosap	2	12717		3084	
Or42a	1	1712	6140	644	2277
CG30487	1	20742		15879	
CG4822	1	9988		2935	
CG31659	1	3024	8400	1426	3368
CG11034	1	1936	6341	996	2763
CG11034	2	2536	6027	1072	2304
Vajk4	1	12696		2025	
Vajk4	2	8460		3768	
dysf	1	22406		17569	
dysf	2	22553		14917	
dysf	3	19872		17649	
dysf	4	16516		4760	
l(3)neo43	1	14640		2265	
Pgant7	1	1483	5691	643	2112
CG16727	1	21408		3565	
CG4712	1	8752		3898	
Mst33A	1	3256	8640	826	4967
Prosbeta6	1	2821		1301	
CG4270	1	2233	6457	1156	2449
Cpr47Ef	1	7184		3783	
Cpr47Ef	2	4.16e5	4.50e5	1.39e5	1.37e5
Hr3	1	3876	5786	317	776
Hr3	2	10528		2984	
CG13404	1	17319		8880	
CG2124	1	15489		7227	

Ordered by “Renilla control light, replicate 1” (highest first): some entries from above.
gene	reagent no.	firefly reporter light, replicate 1	firefly reporter light, replicate 2	Renilla control light, replicate 1	Renilla control light, replicate 2
CG30487	1	20742		15879	
CG4822	1	9988		2935	
Or42a	1	1712	6140	644	2277
